Experimental data: publication PMC13107022

Chains of the proteins cited; added tags and fusions are not shown.
UniProt O00505: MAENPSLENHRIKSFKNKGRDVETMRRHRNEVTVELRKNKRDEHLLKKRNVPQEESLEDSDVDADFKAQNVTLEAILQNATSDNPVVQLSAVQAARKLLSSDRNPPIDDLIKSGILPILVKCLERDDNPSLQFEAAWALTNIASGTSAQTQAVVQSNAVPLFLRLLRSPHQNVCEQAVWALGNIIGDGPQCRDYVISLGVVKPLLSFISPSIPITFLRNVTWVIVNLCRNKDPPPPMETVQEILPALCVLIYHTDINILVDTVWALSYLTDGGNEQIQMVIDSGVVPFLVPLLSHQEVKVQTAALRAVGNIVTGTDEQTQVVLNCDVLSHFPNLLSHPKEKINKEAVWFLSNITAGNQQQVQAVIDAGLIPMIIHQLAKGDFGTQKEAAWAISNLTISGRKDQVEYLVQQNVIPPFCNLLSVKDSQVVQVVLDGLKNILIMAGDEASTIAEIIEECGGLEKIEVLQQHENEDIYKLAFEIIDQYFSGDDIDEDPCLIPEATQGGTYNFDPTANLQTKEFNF
UniProt P09884: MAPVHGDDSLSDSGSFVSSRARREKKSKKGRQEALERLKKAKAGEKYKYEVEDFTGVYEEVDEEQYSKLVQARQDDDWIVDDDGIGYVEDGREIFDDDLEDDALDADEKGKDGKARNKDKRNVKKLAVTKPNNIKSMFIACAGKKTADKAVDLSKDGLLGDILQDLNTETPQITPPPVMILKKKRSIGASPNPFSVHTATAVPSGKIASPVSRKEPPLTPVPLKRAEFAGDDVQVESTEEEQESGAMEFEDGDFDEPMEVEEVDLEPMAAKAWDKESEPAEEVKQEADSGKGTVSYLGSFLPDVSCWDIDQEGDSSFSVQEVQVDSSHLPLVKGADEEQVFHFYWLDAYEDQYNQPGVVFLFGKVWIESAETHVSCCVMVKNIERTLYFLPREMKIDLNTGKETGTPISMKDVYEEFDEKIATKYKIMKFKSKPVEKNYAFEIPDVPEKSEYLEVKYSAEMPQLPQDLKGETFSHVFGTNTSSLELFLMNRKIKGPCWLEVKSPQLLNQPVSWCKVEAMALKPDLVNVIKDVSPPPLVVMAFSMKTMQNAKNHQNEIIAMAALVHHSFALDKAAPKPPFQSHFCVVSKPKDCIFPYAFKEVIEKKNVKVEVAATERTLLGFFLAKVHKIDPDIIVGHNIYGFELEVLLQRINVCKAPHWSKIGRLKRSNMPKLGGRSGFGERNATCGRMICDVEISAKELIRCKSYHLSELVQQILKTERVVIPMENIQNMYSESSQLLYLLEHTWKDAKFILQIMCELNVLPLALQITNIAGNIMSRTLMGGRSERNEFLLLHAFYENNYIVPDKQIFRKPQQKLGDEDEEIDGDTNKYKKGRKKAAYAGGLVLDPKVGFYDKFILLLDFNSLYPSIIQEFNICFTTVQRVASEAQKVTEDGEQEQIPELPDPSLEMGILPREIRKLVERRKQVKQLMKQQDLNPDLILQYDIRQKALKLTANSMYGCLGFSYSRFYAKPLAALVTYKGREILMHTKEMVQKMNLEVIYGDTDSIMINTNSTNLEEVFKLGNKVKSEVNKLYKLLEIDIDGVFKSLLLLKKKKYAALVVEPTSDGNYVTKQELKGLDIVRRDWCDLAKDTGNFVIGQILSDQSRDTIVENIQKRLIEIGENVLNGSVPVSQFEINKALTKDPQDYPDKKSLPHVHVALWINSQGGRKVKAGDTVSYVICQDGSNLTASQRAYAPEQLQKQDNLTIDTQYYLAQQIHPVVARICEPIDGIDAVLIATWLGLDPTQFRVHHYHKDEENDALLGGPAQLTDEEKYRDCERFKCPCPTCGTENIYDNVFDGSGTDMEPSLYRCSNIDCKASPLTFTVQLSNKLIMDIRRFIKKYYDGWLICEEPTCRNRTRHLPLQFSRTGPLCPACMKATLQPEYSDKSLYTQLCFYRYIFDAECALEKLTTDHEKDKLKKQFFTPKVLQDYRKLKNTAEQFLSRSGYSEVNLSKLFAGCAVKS
UniProt Q14186: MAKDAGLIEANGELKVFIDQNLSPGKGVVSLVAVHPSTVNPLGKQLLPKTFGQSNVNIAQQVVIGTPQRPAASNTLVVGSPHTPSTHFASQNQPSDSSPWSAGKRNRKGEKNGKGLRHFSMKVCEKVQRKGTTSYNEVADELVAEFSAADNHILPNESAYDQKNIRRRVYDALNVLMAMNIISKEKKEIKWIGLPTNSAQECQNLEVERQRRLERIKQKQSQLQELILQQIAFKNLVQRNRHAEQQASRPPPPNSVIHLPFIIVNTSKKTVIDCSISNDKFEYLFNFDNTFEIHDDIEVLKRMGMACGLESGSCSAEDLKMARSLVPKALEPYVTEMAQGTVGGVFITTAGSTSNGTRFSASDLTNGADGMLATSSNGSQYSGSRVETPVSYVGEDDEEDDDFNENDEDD
UniProt Q9Y4B6: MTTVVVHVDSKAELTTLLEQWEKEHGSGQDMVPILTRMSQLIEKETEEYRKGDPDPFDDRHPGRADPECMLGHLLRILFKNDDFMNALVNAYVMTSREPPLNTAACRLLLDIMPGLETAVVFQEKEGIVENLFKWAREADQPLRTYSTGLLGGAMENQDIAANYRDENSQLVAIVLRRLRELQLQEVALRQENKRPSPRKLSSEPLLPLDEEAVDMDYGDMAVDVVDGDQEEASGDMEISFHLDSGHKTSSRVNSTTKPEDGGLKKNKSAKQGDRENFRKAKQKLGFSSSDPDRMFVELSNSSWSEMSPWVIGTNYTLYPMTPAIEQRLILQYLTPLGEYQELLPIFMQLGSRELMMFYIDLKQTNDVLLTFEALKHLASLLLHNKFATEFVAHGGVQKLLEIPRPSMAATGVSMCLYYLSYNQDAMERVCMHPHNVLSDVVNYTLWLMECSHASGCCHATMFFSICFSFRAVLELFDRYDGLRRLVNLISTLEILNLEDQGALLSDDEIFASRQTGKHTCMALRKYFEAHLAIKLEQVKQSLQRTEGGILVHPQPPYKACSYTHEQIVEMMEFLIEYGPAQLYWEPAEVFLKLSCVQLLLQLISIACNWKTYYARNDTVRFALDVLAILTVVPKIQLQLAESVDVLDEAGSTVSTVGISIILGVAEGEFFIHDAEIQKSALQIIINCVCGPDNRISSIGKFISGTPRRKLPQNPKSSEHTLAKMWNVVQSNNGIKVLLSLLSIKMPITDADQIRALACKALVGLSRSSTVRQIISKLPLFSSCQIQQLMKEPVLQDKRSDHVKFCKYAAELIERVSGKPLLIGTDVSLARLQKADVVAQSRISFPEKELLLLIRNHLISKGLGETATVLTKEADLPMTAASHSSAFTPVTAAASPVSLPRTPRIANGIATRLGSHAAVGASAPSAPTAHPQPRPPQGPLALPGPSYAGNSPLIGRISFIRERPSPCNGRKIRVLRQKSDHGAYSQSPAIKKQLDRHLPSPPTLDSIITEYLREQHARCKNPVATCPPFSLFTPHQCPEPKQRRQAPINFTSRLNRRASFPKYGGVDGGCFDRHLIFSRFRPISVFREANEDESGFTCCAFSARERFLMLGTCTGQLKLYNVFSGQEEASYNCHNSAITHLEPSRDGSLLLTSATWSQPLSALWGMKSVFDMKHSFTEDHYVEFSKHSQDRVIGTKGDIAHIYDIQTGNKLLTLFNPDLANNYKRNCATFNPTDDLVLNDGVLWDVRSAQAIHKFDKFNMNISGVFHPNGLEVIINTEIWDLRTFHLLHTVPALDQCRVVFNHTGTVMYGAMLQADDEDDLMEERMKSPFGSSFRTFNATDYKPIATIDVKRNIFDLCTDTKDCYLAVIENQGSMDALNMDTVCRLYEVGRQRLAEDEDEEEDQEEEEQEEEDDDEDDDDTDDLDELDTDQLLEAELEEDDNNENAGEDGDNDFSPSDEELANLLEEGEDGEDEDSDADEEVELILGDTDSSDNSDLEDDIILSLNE

T1: TurboID-RAG1 (TurboID fused to the N-terminus of full-length human RAG1, C-terminal HA tag) (human) (UniProt P15918)
T1 sequence: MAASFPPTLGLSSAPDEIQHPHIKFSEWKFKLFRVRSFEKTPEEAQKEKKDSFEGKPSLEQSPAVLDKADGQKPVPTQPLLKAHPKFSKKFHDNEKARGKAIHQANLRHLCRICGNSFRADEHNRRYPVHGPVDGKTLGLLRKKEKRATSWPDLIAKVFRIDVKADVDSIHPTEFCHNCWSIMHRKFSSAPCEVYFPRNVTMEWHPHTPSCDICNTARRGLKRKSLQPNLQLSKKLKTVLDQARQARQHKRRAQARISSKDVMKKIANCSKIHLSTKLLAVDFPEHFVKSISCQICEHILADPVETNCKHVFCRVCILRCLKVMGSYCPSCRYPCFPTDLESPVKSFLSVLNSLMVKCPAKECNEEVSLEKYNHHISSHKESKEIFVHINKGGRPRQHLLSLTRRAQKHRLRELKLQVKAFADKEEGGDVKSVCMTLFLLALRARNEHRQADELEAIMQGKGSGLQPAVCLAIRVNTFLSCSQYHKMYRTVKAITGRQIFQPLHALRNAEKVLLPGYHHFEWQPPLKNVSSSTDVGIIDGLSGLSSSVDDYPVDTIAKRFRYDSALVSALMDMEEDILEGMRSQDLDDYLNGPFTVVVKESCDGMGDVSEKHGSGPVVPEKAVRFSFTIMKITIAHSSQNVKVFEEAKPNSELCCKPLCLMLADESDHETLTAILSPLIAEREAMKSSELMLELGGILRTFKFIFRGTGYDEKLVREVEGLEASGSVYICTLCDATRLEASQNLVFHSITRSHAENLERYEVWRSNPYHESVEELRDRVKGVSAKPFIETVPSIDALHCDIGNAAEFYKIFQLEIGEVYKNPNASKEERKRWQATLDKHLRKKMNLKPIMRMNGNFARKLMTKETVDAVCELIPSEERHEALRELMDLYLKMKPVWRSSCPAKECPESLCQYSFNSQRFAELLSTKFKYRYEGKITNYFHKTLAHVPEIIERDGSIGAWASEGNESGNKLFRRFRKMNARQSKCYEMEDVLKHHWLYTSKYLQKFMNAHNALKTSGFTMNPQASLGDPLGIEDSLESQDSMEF

T2: TurboID-RAG2 (TurboID fused to the N-terminus of full-length human RAG2) (human) (UniProt P55895)
T2 sequence: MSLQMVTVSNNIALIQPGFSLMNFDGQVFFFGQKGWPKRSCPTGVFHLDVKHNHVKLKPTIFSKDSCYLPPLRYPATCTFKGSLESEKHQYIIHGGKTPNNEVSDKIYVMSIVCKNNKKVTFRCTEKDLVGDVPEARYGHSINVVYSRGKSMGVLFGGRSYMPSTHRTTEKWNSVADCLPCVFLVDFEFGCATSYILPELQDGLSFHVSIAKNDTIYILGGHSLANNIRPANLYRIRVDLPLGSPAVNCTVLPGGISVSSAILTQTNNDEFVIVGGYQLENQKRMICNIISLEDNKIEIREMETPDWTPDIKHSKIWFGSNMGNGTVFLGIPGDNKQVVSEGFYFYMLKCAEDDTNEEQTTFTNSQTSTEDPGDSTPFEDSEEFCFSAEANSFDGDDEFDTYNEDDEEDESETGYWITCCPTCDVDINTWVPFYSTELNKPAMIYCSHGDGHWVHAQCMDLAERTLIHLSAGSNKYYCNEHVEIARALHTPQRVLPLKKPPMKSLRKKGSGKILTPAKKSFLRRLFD


Legend:
Assay in all cases: proximity labelling; TurboID fused to RAG1 or RAG2 (co-expressed with the other subunit) in HEK293T; 50 uM D-biotin, 37°C, 15 min; lysis with 8 M urea, streptavidin beads, on-bead trypsin, label-free LC-MS/MS; control TurboID-HA alone; three biological replicates
[1] = molecular target: T1, TurboID-RAG1 (TurboID fused to the N-terminus of full-length human RAG1, C-terminal HA tag) (human)
[2] = molecular target: T1, TurboID-RAG1 (TurboID fused to the N-terminus of full-length human RAG1, C-terminal HA tag) (human); remark: listed apart in the source
[3] = molecular target: T2, TurboID-RAG2 (TurboID fused to the N-terminus of full-length human RAG2) (human)

| Molecule | binding [1] | further results |
| --- | --- | --- |
| KPNA3 (Karyopherin Subunit Alpha 3), endogenous (from UniProt O00505 1-521) | binds | – |
| POLA1, endogenous (from UniProt P09884 1-1462) | binds | – |
| TFDP1, endogenous (from UniProt Q14186 1-410) | binds | – |
| VprBP (Vpr-binding protein), endogenous (from UniProt Q9Y4B6 1-1507) | binds | – |
| RB1, endogenous (protein, UniProt P06400 1-928) MPPKTPRKTAATAAAAAAEPPAPPPPPPPEEDPEQDSGPEDLPLVRLEFEETEEPDFTALCQKLKIPDHVRERAWLTWEKVSSVDGVLGGYIQKKKELWGICIFIAAVDLDEMSFTFTELQKNIEISVHKFFNLLKEIDTSTKVDNAMSRLLKKYDVLFALFSKLERTCELIYLTQPSSSISTEINSALVLKVSWITFLLAKGEVLQMEDDLVISFQLMLCVLDYFIKLSPPMLLKEPYKTAVIPINGSPRTPRRGQNRSARIAKQLENDTRIIEVLCKEHECNIDEVKNVYFKNFIPFMNSLGLVTSNGLPEVENLSKRYEEIYLKNKDLDARLFLDHDKTLQTDSIDSFETQRTPRKSNLDEEVNVIPPHTPVRTVMNTIQQLMMILNSASDQPSENLISYFNNCTVNPKESILKRVKDIGYIFKEKFAKAVGQGCVEIGSQRYKLGVRLYYRVMESMLKSEEERLSIQNFSKLLNDNIFHMSLLACALEVVMATYSRSTSQNLDSGTDLSFPWILNVLNLKAFDFYKVIESFIKAEGNLTREMIKHLERCEHRIMESLAWLSDSPLFDLIKQSKDREGPTDHLESACPLNLPLQNNHTAADMYLSPVRSPKKKGSTTRVNSTANAETQATSAFQTQKPLKSTSLSLFYKKVYRLAYLRLNTLCERLLSEHPELEHIIWTLFQHTLQNEYELMRDRHLDQIMMCSMYGICKVKNIDLKFKIIVTAYKDLPHAVQETFKRVLIKEEEYDSIIVFYNSVFMQRLKTNILQYASTRPPTLSPIPHIPRSPYKFPSSPLRIPGGNIYISPLKSPYKISEGLPTPTKMTPRSRILVSIGESFGTSEKFQKINQMVCNSDRVLKRSAEGSNPPKPLKKLRFDIEGSDEADGSKHLPGESKFQQKLAEMTSTRTRMQKQKMNDSMDTSNKEEK | – | binding [2]: binds |
| NUP37 (Nucleoporin 37), endogenous (protein, UniProt Q8NFH4 1-326) MKQDASRNAAYTVDCEDYVHVVEFNPFENGDSGNLIAYGGNNYVVIGTCTFQEEEADVEGIQYKTLRTFHHGVRVDGIAWSPETRLDSLPPVIKFCTSAADMKIRLFTSDLQDKNEYKVLEGHTDFINGLVFDPKEGQEIASVSDDHTCRIWNLEGVQTAHFVLHSPGMSVCWHPEETFKLMVAEKNGTIRFYDLLAQQAILSLESEQVPLMSAHWCLKNTFKVGAVAGNDWLIWDITRSSYPQNKRPVHMDRACLFRWSTISENLFATTGYPGKMASQFQIHHLGHPQPILMGSVAVGSGLSWHRTLPLCVIGGDHKLLFWVTEV | – | binding [3]: binds |
| NUP133, endogenous (protein, UniProt Q8WUM0 1-1156) MFPAAPSPRTPGTGSRRGPLAGLGPGSTPRTASRKGLPLGSAVSSPVLFSPVGRRSSLSSRGTPTRMFPHHSITESVNYDVKTFGSSLPVKVMEALTLAEVDDQLTINIDEGGWACLVCKEKLIIWKIALSPITKLSVCKELQLPPSDFHWSADLVALSYSSPSGEAHSTQAVAVMVATREGSIRYWPSLAGEDTYTEAFVDSGGDKTYSFLTAVQGGSFILSSSGSQLIRLIPESSGKIHQHILPQGQGMLSGIGRKVSSLFGILSPSSDLTLSSVLWDRERSSFYSLTSSNISKWELDDSSEKHAYSWDINRALKENITDAIWGSESNYEAIKEGVNIRYLDLKQNCDGLVILAAAWHSADNPCLIYYSLITIEDNGCQMSDAVTVEVTQYNPPFQSEDLILCQLTVPNFSNQTAYLYNESAVYVCSTGTGKFSLPQEKIVFNAQGDSVLGAGACGGVPIIFSRNSGLVSITSRENVSILAEDLEGSLASSVAGPNSESMIFETTTKNETIAQEDKIKLLKAAFLQYCRKDLGHAQMVVDELFSSHSDLDSDSELDRAVTQISVDLMDDYPASDPRWAESVPEEAPGFSNTSLIILHQLEDKMKAHSFLMDFIHQVGLFGRLGSFPVRGTPMATRLLLCEHAEKLSAAIVLKNHHSRLSDLVNTAILIALNKREYEIPSNLTPADVFFREVSQVDTICECLLEHEEQVLRDAPMDSIEWAEVVINVNNILKDMLQAASHYRQNRNSLYRREESLEKEPEYVPWTATSGPGGIRTVIIRQHEIVLKVAYPQADSNLRNIVTEQLVALIDCFLDGYVSQLKSVDKSSNRERYDNLEMEYLQKRSDLLSPLLSLGQYLWAASLAEKYCDFDILVQMCEQTDNQSRLQRYMTQFADQNFSDFLFRWYLEKGKRGKLLSQPISQHGQLANFLQAHEHLSWLHEINSQELEKAHATLLGLANMETRYFAKKKTLLGLSKLAALASDFSEDMLQEKIEEMAEQERFLLHQETLPEQLLAEKQLNLSAMPVLTAPQLIGLYICEENRRANEYDFKKALDLLEYIDEEEDININDLKLEILCKALQRDNWSSSDGKDDPIEVSKDSIFVKILQKLLKDGIQLSEYLPEVKDLLQADQLGSLKSNPYFEFVLKANYEYYVQGQI | – | binding [3]: binds |

Read-outs that look alike come from different tables or passages of the source. Results are given in words; binding and its absence hold for the method and conditions named. Binding seen in cells or lysates may run through a third protein. A yes stands for co-enrichment or nearness to the bait. Other partners may have been found. Sequences can lack the tags named with a protein.
